Results deposited as PubChem BioAssay AID686943 (Drosophila RNAi Screening Center, 2013)

Assay: 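Knockdowns that increase or decrease active ERK after insulin receptor stimulation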 (primary screen)
System: Drosophila S2R+ haemocyte-like cells expressing YFP-tagged ERK (Rolled)
Knock-down reagent: long dsRNA against Drosophila genes
Treatment: insulin stimulation versus unstimulated cells; dose and duration not given
Measured: 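Per-plate z-scores of phospho-ERK immunostaining normalised to YFP-tagged ERK, measured with and without insulin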
Scale: replicate 1, z-score of dpERK with insulin: higher = more active ERK per ERK-YFP after insulin
The screen tested about 23,000 reagents; this is an unselected part of those with a known target gene and a result. 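Extra replicates exist only for a retested subset of genes; insulin dose and duration not given; both raised and lowered dpERK matter.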 Reagents against one gene are numbered here. A plus sign joins genes that one reagent is predicted to hit. Not all columns of the deposit are shown. Reagent sequences are not shown. Not given: the amount of reagent, the time to read-out.

Knock-down of Dic61B resulted in: replicate 1, z-score of dpERK with insulin -0.13. Sema2b #1 showed replicate 1, z-score of dpERK with insulin 0.48. With knock-down of Sema2b #2, the screen gave replicate 1, z-score of dpERK with insulin 0.35. Sema2b #3 scored replicate 1, z-score of dpERK with insulin -0.61. Silencing of GAPsec resulted in: replicate 1, z-score of dpERK with insulin -0.12. dgt6 showed replicate 1, z-score of dpERK with insulin -1.18.

Against CCHa1-R #1 the deposit lists replicate 1, z-score of dpERK with insulin 0.32. Depletion of CCHa1-R #2 came out at: replicate 1, z-score of dpERK with insulin 0.06. dap showed replicate 1, z-score of dpERK with insulin 1.61. After knock-down of swa, the screen gave replicate 1, z-score of dpERK with insulin 0.45. lncRNA:sphinx + ATPsynF scored replicate 1, z-score of dpERK with insulin -0.42. With knock-down of tyf, the record shows replicate 1, z-score of dpERK with insulin 0.33.

With knock-down of Ptp10D, the screen gave replicate 1, z-score of dpERK with insulin 0.41. With knock-down of Atac3 the results were replicate 1, z-score of dpERK with insulin 0.38. Knock-down of CG18213 came out at: replicate 1, z-score of dpERK with insulin 0.71. After knock-down of CG6652 the results were replicate 1, z-score of dpERK with insulin -0.05. Kap3 gave replicate 1, z-score of dpERK with insulin 0.43. Knock-down of CG34126 #1 gave: replicate 1, z-score of dpERK with insulin 0.01.

For CG34126 #2, the values are replicate 1, z-score of dpERK with insulin -1.84. After knock-down of Inx7, the record shows replicate 1, z-score of dpERK with insulin 0.61. For cact the deposit lists replicate 1, z-score of dpERK with insulin -2.37. CG15812 showed replicate 1, z-score of dpERK with insulin -1.39. For Miro, the entry reads replicate 1, z-score of dpERK with insulin -0.77. Against CG14130, the entry reads replicate 1, z-score of dpERK with insulin -0.18.

With knock-down of Mal-A2, the record shows replicate 1, z-score of dpERK with insulin 0.42. mRpL43 #1 showed replicate 1, z-score of dpERK with insulin 0.12. Against mRpL43 #2 the deposit lists replicate 1, z-score of dpERK with insulin 0.1. Pi3K92E gave replicate 1, z-score of dpERK with insulin -1.05. CG3760 showed replicate 1, z-score of dpERK with insulin -1.2. Against CG14408, the values are replicate 1, z-score of dpERK with insulin -0.13.

Against Hr51 #1 the deposit lists replicate 1, z-score of dpERK with insulin -0.09. Hr51 #2 showed replicate 1, z-score of dpERK with insulin 0.82. CG15535 gave replicate 1, z-score of dpERK with insulin 0.55. After knock-down of toy, the screen gave replicate 1, z-score of dpERK with insulin -2.18. Depletion of Ndae1 #1 resulted in: replicate 1, z-score of dpERK with insulin 0.38. Against Ndae1 #2, the entry reads replicate 1, z-score of dpERK with insulin 1.38.

Against CG15550, the entry reads replicate 1, z-score of dpERK with insulin 0.16. Against Doc2, the entry reads replicate 1, z-score of dpERK with insulin 0.12. Against Cul6, the entry reads replicate 1, z-score of dpERK with insulin -0.61. Knock-down of Vha68-2 came out at: replicate 1, z-score of dpERK with insulin 0.15.
